# Assay results as given in patent US20230047208A1, “RNA Splicing Modulation” (The General Hospital Corporation, priority 2020, published 2023).
# The source gives many values for each of these; only a part stands here.
# System: wildtype (WT) human fibroblast cell lines
# Experiment: Transcriptome-wide splicing by RNA sequencing (RNASeq), exon triplet PSI change;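 for Effect: six WT fibroblast lines treated seven days versus DMSO vehicle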;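 for T-PSI: T-PSI is average treated PSI after seven days of treatment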
# Format: cell-based
# Parameters: key to Effect: Exclusion; Inclusion; Unchanged
# Excerpt: FIG. 2A provides a representation of an exon triplet. Exon U is upstream of Exon X, which is upstream of Exon D. R1, R2 and R3 represent RNA sequencing (RNASeq) reads spanning the regions between two adjacent exons. UI1, I1X, XI2 and I2D are four regions flanking the four splice sites of the exon-triplet. Each flanking region consists of 25 exonic base pairs and 75 intronic base pairs.
# FIG. 2B provides a volcano plot showing the ψ (PSI: Percent Spliced-In) changes in splicing after treatment with Compound (I). Each dot represents one of the 161,097 expressed exon triplets in human fibroblasts. The x axis represents the ψ changes after treatment and the y axis represents the False Discovery Rate (FDR) (log 10 transformed). […] The horizontal dashed line indicates an FDR of 0.1. The dots on the right side of the right vertical dashed line and above the horizontal dashed line represent the exon-triplets with an increase for Exon X inclusion (Δψ≥0.1 and FDR<0.1) while the dots on left side of the left vertical dashed line and above the horizontal dashed line represent an increase for Exon X exclusion (Δψ≤−0.1 and FDR<0.1). Black dots in-between the two vertical dashed lines represent exon-triplets unchanged from the treatment.
# In some aspects, analysis is performed on data derived from the assay to measure the magnitude of splicing to determine the amount of exons spliced into an mRNA transcript that is produced in the presence of Compound (I) relative to the amount in the absence of Compound (I) or presence of a negative control. In a preferred aspect, the method utilized is calculation of change in Percent Spliced In (ΔPSI). […] The ΔPSI value is derived from the formula: […]
# The values for “a” and “b” represent the number of reads supporting the probability for potential inclusion or exclusion of an exon in an RNA transcript. The “a” value is derived from the number of reads within an exon triplet covering, in 5′ to 3′ order: the last few bases (>1 nucleotide) of an upstream exon operably linked to the first few bases (>1 nucleotide) of a middle exon. The “b” value is derived from the number of reads within an exon triplet covering, in 5′ to 3′ order: the last few bases (>1 nucleotide) of the middle exon operably linked to the first few bases (>1 nucleotide) of a downstream exon. The number of reads will indicate whether the splice junction of a middle exon has been identified as potentially having a CNN Motif(s) by the CNN Model described herein, wherein the inclusion or exclusion of the middle exon may be modulated in the presence of Compound (I) to produce one or more mature RNA isoforms from the gene transcript. The value for “c” represents the number of reads supporting the exclusion of the middle exon.
# The effect on splicing modulation and corresponding splice differences toward exon inclusion or exclusion was determined by counting the RNASeq reads covering two splice junctions of exon triplets (three consecutive exons: Exon U, Exon X, Exon D) and the corresponding intervening introns, then comparing the change in Percent Spliced In (ΔPSI or Δψ) of the middle exon (Exon X) after treatment (as shown in FIG. 2A)^52,53. 934 exon triplets were identified showing differential middle exon inclusion or exclusion in response to Compound (I) treatment. Of these, 254 were exon inclusion events (Δψ≥0.1 and FDR<0.1) and 680 were exon exclusion events (Δψ≤−0.1 and FDR<0.1) (as shown in FIG. 2B). […] The splicing results were evaluated by RT-PCR in independent replicate experiments, confirming all the calculated Δψ values. […]
# [1] = SPTAN1 Exon 131355262-131355321, seven days
# [2] = SRSF2 Exon 74731854-74731957, seven days
# [3] = ST6GALNAC6 Exon 130660235-130660289, seven days
# [4] = ST7 Exon 116859138-116859230, seven days
# [5] = ST7 Exon 116861977-116862116, seven days
# [6] = STAG1 Exon 136287607-136287703, seven days
# [7] = STAG2 Exon 123155217-123155281, seven days
# [8] = STARD3 Exon 37814962-37815073, seven days
# [9] = STARD3NL Exon 38218692-38218747, seven days
# [10] = STARD4 Exon 110837660-110837786, seven days
# [11] = STARD5 Exon 81615240-81615289, seven days
# [12] = STAT6 Exon 57501442-57501526, seven days
# [13] = STK16 Exon 220111835-220111968, seven days
# [14] = STK19 Exon 31947191-31947330, seven days
# [15] = STK38L Exon 27461272-27461394, seven days
# [16] = STK40 Exon 36833449-36833685, seven days
# [17] = STK40 Exon 36833453-36833685, seven days
# [18] = STOML1 Exon 74281371-74281598, seven days
# [19] = STOML1 Exon 74281449-74281598, seven days
# [20] = STRA13 Exon 79977386-79977570, seven days
# [21] = STRA13 Exon 79977517-79977570, seven days
# [22] = STRADA Exon 61784607-61784778, seven days
# [23] = STRN3 Exon 31388172-31388312, seven days
# [24] = STX3 Exon 59564756-59564869, seven days
# [25] = STX16-NPEPL1 Exon 57244347-57244509, seven days
# [26] = STX16 Exon 57244347-57244509, seven days
# [27] = STX16 Exon 57244358-57244509, seven days
# [28] = STXBP3 Exon 109321908-109322032, seven days
# [29] = STXBP5 Exon 147660473-147660520, seven days
# [30] = STYXL1 Exon 75643060-75643205, seven days
# [31] = SUCO Exon 172522400-172522510, seven days
# [32] = SUGP2 Exon 19104447-19104549, seven days
# [33] = SUGP2 Exon 19104457-19104549, seven days
# [34] = SUGT1 Exon 53235610-53235705, seven days
# [35] = SULF1 Exon 70408000-70408161, seven days
# [36] = SULF1 Exon 70550737-70550879, seven days
# [37] = SUN2 Exon 39150647-39150711, seven days
# [38] = SUOX Exon 56391399-56391507, seven days
structure (smiles),measurement,setting,value
"Clc1nc(NCc2ccncc2)c2cc[nH]c2n1 [Compound (I), 2-chloro-N-(pyridin-4-ylmethyl)-7H-pyrrolo[2,3-d]pyrimidin-4-amine]",ΔPSI,"SPPL2A Exon 51018270-51018323, seven days",0.378
same,Effect,[1],Exc
same,T-PSI,[1],0.040
same,ΔPSI,[1],−0.249
same,Effect,[2],Unc
same,T-PSI,[2],0.113
same,ΔPSI,[2],0.001
same,Effect,[3],Inc
same,T-PSI,[3],0.659
same,ΔPSI,[3],0.130
same,Effect,[4],Exc
same,T-PSI,[4],0.857
same,ΔPSI,[4],−0.137
same,Effect,[5],Exc
same,T-PSI,[5],0.771
same,ΔPSI,[5],−0.218
same,Effect,[6],Unc
same,T-PSI,[6],0.885
same,ΔPSI,[6],0.007
same,Effect,[7],Unc
same,T-PSI,[7],0.279
same,ΔPSI,[7],0.002
same,Effect,[8],Unc
same,T-PSI,[8],0.871
same,ΔPSI,[8],0.009
same,Effect,[9],Inc
same,T-PSI,[9],0.195
same,ΔPSI,[9],0.108
same,Effect,[10],Unc
same,T-PSI,[10],0.760
same,ΔPSI,[10],−0.008
same,Effect,[11],Exc
same,T-PSI,[11],0.780
same,ΔPSI,[11],−0.169
same,Effect,[12],Exc
same,T-PSI,[12],0.732
same,ΔPSI,[12],−0.124
same,Effect,[13],Exc
same,T-PSI,[13],0.703
same,ΔPSI,[13],−0.216
same,Effect,[14],Exc
same,T-PSI,[14],0.773
same,ΔPSI,[14],−0.171
same,Effect,[15],Unc
same,T-PSI,[15],0.898
same,ΔPSI,[15],−0.008
same,Effect,[16],Inc
same,T-PSI,[16],0.358
same,ΔPSI,[16],0.221
same,Effect,[17],Inc
same,T-PSI,[17],0.551
same,ΔPSI,[17],0.309
same,Effect,[18],Unc
same,T-PSI,[18],0.818
same,ΔPSI,[18],0.001
same,Effect,[19],Unc
same,T-PSI,[19],0.898
same,ΔPSI,[19],−0.004
same,Effect,[20],Exc
same,T-PSI,[20],0.142
same,ΔPSI,[20],−0.226
same,Effect,[21],Exc
same,T-PSI,[21],0.249
same,ΔPSI,[21],−0.261
same,Effect,[22],Exc
same,T-PSI,[22],0.833
same,ΔPSI,[22],−0.129
same,Effect,[23],Inc
same,T-PSI,[23],0.187
same,ΔPSI,[23],0.110
same,Effect,[24],Exc
same,T-PSI,[24],0.629
same,ΔPSI,[24],−0.239
same,Effect,[25],Exc
same,T-PSI,[25],0.495
same,ΔPSI,[25],−0.327
same,Effect,[26],Exc
same,T-PSI,[26],0.495
same,ΔPSI,[26],−0.327
same,Effect,[27],Exc
same,T-PSI,[27],0.335
same,ΔPSI,[27],−0.380
same,Effect,[28],Exc
same,T-PSI,[28],0.862
same,ΔPSI,[28],−0.128
same,Effect,[29],Unc
same,T-PSI,[29],0.827
same,ΔPSI,[29],−0.002
same,Effect,[30],Exc
same,T-PSI,[30],0.572
same,ΔPSI,[30],−0.177
same,Effect,[31],Inc
same,T-PSI,[31],0.967
same,ΔPSI,[31],0.362
same,Effect,[32],Inc
same,T-PSI,[32],0.908
same,ΔPSI,[32],0.106
same,Effect,[33],Inc
same,T-PSI,[33],0.902
same,ΔPSI,[33],0.111
same,Effect,[34],Exc
same,T-PSI,[34],0.285
same,ΔPSI,[34],−0.126
same,Effect,[35],Exc
same,T-PSI,[35],0.446
same,ΔPSI,[35],−0.206
same,Effect,[36],Exc
same,T-PSI,[36],0.702
same,ΔPSI,[36],−0.209
same,Effect,[37],Exc
same,T-PSI,[37],0.221
same,ΔPSI,[37],−0.132
same,Effect,[38],Unc
same,T-PSI,[38],0.626
same,ΔPSI,[38],−0.005
same,Effect,"effect on middle exon of the exon triplet named in c0-c3 (gene, Intron1, Exon, Intron2), six WT human fibroblast cell lines treated with Compound (I) for seven days, RNASeq",Exc and Inc and Unc
